Reference: PMC7555659
These are yes or no findings as the source states them, for the method shown. Binding seen in cells or lysates may run through a third protein.

The chains behind the UniProt entries cited, without tags or fusion partners.
UniProt P14602: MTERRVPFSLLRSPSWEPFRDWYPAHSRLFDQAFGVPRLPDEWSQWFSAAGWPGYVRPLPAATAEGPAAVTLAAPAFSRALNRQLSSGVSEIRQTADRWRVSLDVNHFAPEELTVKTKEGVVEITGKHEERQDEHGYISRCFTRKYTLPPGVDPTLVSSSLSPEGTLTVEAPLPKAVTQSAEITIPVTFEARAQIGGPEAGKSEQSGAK
UniProt P34152: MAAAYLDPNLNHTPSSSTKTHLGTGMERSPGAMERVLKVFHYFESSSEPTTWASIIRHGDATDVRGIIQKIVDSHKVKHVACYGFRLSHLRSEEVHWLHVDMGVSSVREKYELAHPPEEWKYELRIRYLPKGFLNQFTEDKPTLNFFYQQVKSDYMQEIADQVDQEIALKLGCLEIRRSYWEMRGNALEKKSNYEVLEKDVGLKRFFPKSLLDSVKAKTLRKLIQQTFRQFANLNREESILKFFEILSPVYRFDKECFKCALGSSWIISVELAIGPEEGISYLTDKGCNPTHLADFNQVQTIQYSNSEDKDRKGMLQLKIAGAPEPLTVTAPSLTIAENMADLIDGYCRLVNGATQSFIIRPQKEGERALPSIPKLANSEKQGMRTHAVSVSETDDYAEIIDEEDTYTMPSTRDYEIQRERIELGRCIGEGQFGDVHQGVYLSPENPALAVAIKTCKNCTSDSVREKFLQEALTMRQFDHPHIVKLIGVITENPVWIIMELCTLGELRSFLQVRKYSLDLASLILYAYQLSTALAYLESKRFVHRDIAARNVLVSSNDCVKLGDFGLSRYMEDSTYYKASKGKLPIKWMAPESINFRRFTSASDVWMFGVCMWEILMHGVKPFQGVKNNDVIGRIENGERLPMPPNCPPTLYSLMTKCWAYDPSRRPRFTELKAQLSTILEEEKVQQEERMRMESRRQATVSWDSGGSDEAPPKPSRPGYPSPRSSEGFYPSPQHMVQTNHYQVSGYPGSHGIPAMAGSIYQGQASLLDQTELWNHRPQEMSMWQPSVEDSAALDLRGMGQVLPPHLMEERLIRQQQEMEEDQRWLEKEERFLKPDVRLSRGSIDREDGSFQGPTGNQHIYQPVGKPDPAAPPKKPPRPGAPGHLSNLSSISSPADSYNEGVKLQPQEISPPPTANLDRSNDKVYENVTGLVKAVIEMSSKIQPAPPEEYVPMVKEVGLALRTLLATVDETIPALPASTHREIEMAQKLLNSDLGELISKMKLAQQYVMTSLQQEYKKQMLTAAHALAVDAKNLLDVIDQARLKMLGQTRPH

Target: heat shock protein 25 (mouse (endogenous in hippocampus)) (UniProt P14602)
Test: co-IP; whole hippocampus of P2X7R KO mice 7 days after KA, lysed in RIPA buffer (50 mM Tris-HCl pH 8.0, 1% Nonidet P-40, 0.5% deoxycholate, 0.1% SDS); HSP25 antibody and protein G Sepharose overnight at 4 °C; Western blot; vehicle-infused

Q: For “focal adhesion kinase (from UniProt P34152 1-1052)”, which binding is on record?
A: no binding
